Experimental data as given in US20140348745A1.
Results are given in words; binding and its absence hold for the method and conditions named. Some entries that bind do so weakly or less than the wild type. Blank lines part the entries; values can stand above or below the binder they belong to.

How the values were obtained:
[1] = molecular target: T1, human CD37 antigen (human) (UniProt P11049); test: flow cytometry on Daudi cells
T1 sequence (looked up): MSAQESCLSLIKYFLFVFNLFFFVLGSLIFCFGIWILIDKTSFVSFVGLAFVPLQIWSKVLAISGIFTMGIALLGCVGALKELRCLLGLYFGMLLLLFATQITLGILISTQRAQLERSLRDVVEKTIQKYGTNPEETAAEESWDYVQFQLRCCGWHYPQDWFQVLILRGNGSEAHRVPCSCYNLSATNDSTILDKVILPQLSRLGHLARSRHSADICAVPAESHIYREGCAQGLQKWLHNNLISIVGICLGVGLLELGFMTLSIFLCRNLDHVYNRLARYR

[2] = molecular target: T1, human CD37 antigen (human); test: radioligand binding to Daudi lymphoma cells
[3] = molecular target: T1, human CD37 antigen (human); test: cross-blocking of radiolabelled antibodies on Ramos cells
[4] = molecular target: T1, human CD37 antigen (human); test: cross-blocking of 125I-chHH1.3 on Ramos cells

- binding [1]: binds
- binding [2]: binds
B1: chimeric HH1 anti-CD37 antibody, human IgG1 isotype (chHH1.1) (antibody, V domains shown)
VH: EIQLQQSGPELVKPGASVKVSCKASGYSFTDYNMYWVKQSHGKSLEWIGYIDPYNGDTTYNQKFKGKATLTVDKSSSTAFIHLNSLTSEDSAVYYCARSPYGHYAMDYWGQGTSVTVSS
VL: DIVMTQSHKLLSTSVGDRVSITCKASQDVSTAVDWYQQKPGQSPKLLINWASTRHTGVPDRFTGSGSGTDYTLTISSMQAEDLALYYCRQHYSTPFTFGSGTKLEIK

- binding [3]: binds
- binding [4]: binds
B2: chimeric HH1 with isotype IgG3 (chHH1.3) (antibody, V domains shown)
VH: B1 VH
VL: DIVMTQSHKLLSTSVGDRVSITCKASQDVSTAVDWYQQKPGQSPKLLINWASTRHTGVPDRFTGSGSGTDYTLTISSMQAEDLALYYCRQHYSTPFTFGSGTKLEIKR
